Taken from: PubChem BioAssay AID504808 (Drosophila RNAi Screening Center, 2011)

Aim: 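Fly genes required to hold E2F transcription in check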 (primary screen)
Cell system: Drosophila S2 cells
Reagents: long dsRNA against Drosophila genes
Read-out: 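Dual luciferase plate measurements; E2F-specific signal taken as firefly over Renilla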
Direction: E2F firefly: higher = more E2F reporter activity; Renilla normaliser: higher = more normaliser reporter signal
Hit rule: 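a knock-down counted as active when the firefly/Renilla E2F signal rose above 50%, a threshold chosen arbitrarily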
In all, the deposit lists about 21,000 reagents; below is a random part of those with a known target gene and a result. Of all reagents, 18 (0.084%) got an active call. 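Raw counts without plate normalisation, one of two replicates; the ratio scores behind the calls were not deposited.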 Unmarked entries are inactive. Names joined by + are all predicted targets of the reagent. The record does not give: the amount of reagent, the time to read-out.

| predicted target | amplicon | E2F firefly, rep 1 | Renilla normaliser, rep 1 |
| --- | --- | --- | --- |
| CG13492 (GeneID 37487) | DRSC04137 | 1.08e5 | 4474 |
| Sym (GeneID 40709) | DRSC12301 | 62968 | 2785 |
| CG2818 (GeneID 33597) | DRSC00540 | 87406 | 3808 |
| Rcd6 (GeneID 37332) | DRSC06054 | 67165 | 3052 |
| CG13842 (GeneID 42685) | DRSC14692 | 1.07e5 | 5467 |
| ver (GeneID 39432) | DRSC10125 | 1.27e5 | 7205 |
| CG42675 (GeneID 40722) | DRSC12157 | 79931 | 3708 |
| Rab9Db + Rab9Fa | DRSC18445 | 1.22e5 | 5424 |
| fan (GeneID 43926) | DRSC10930 | 1.00e5 | 3831 |
| CG13751 (GeneID 35879) | DRSC06422 | 1.50e5 | 5068 |
| CG11843 (GeneID 43432) | DRSC14401 | 1.12e5 | 6676 |
| Raf (GeneID 31221) | DRSC18821 | 1.06e5 | 4985 |
| CG7523 (GeneID 42125) | DRSC16254 | 66331 | 3452 |
| CG8509 (GeneID 32535) | DRSC20109 | 7559 | 660 |
| ATP6 (retired record) (GeneID 192467) | DRSC21278 | 1.30e5 | 5659 |
| mAcon2 (GeneID 41326) | DRSC15629 | 1.40e5 | 6184 |
| CG12375 (GeneID 34106) | DRSC02163 | 90226 | 3293 |
| escl (GeneID 34611) | DRSC02828 | 85868 | 3123 |
| BEAF-32 (GeneID 36645) | DRSC05927 | 2616 | 166 |
| RpS14b (GeneID 47219) | DRSC18711 | 51353 | 5054 |
| CG3088 (GeneID 39115) | DRSC10352 | 69286 | 3221 |
| Eig71Eb (GeneID 39701) | DRSC11149 | 1.73e5 | 7276 |
| Apl (GeneID 59216) | DRSC10350 | 1.66e5 | 8490 |
| robl62A (GeneID 38170) | DRSC08153 | 93535 | 4152 |
| Vti1b (GeneID 42215) | DRSC16283 | 79702 | 4333 |
| Vti1b (GeneID 42215) | DRSC16284 | 1.25e5 | 6855 |
| CG34268 (GeneID 5740141) | DRSC07874 | 1.27e5 | 3990 |
| Nedd8 (GeneID 35151) | DRSC02092 | 96028 | 4873 |

Continued (12 carried over from the part before).
| predicted target | amplicon | E2F firefly, rep 1 | Renilla normaliser, rep 1 |
| --- | --- | --- | --- |
| CG12375 (GeneID 34106) | DRSC02163 | 90226 | 3293 |
| escl (GeneID 34611) | DRSC02828 | 85868 | 3123 |
| BEAF-32 (GeneID 36645) | DRSC05927 | 2616 | 166 |
| RpS14b (GeneID 47219) | DRSC18711 | 51353 | 5054 |
| CG3088 (GeneID 39115) | DRSC10352 | 69286 | 3221 |
| Eig71Eb (GeneID 39701) | DRSC11149 | 1.73e5 | 7276 |
| Apl (GeneID 59216) | DRSC10350 | 1.66e5 | 8490 |
| robl62A (GeneID 38170) | DRSC08153 | 93535 | 4152 |
| Vti1b (GeneID 42215) | DRSC16283 | 79702 | 4333 |
| Vti1b (GeneID 42215) | DRSC16284 | 1.25e5 | 6855 |
| CG34268 (GeneID 5740141) | DRSC07874 | 1.27e5 | 3990 |
| Nedd8 (GeneID 35151) | DRSC02092 | 96028 | 4873 |
| CG4743 (GeneID 43101) | DRSC15636 | 1.16e5 | 6040 |
| Elal (GeneID 42970) | DRSC16662 | 73367 | 5003 |
| Wdr81 (GeneID 34616) | DRSC02985 | 81195 | 3427 |
| CR30068 (retired record) (GeneID 3771873) | DRSC05477 | 1.38e5 | 5698 |
| PGAP3 (GeneID 35570) | DRSC04989 | 77980 | 3582 |
| ReepA (GeneID 37643) | DRSC04572 | 84879 | 3369 |
| CG12376 (GeneID 35857) | DRSC06144 | 2742 | 201 |
| Pp1-Y1 (GeneID 5740113) | DRSC20896 | 76768 | 2598 |
| AttA (GeneID 36636) | DRSC05926 | 2961 | 207 |
| CG42717 (GeneID 10178897) | DRSC09411 | 1.31e5 | 4154 |
| imd (GeneID 44339) | DRSC05928 | 85307 | 3175 |
| CG6674 (GeneID 39174) | DRSC10692 | 75245 | 3314 |
| TwdlG (GeneID 40535) | DRSC12229 | 1.30e5 | 7297 |
| CG7182 (GeneID 38944) | DRSC10780 | 81163 | 3518 |
| CG11037 (GeneID 40317) | DRSC11631 | 1.17e5 | 6470 |
| CG1827 (GeneID 35989) | DRSC06719 | 3078 | 49 |
| sti (GeneID 39429) | DRSC09739 | 1.08e5 | 6490 |
| sti (GeneID 39429) | DRSC09740 | 1.17e5 | 7704 |
| CG8483 (GeneID 41623) | DRSC16430 | 74466 | 3830 |
| CG10252 (GeneID 42794) | DRSC14221 | 82238 | 3763 |
| ced-6 (GeneID 35971) | DRSC07591 | 1.58e5 | 4804 |
| CG7747 (GeneID 36820) | DRSC07038 | 62197 | 3392 |
| CG10936 (GeneID 37000) | DRSC05669 | 1.61e5 | 7291 |
| CG10936 (GeneID 37000) | DRSC05670 | 1.54e5 | 6999 |
| CG10936 (GeneID 37000) | DRSC06018 | 1.51e5 | 5542 |
| meigo (GeneID 42510) | DRSC15877 | 1.17e5 | 6575 |
| CG11248 (GeneID 40411) | DRSC11644 | 68225 | 3685 |
| CG5612 (GeneID 43316) | DRSC15844 | 1.11e5 | 7531 |
| sna (GeneID 34908) | DRSC03613 | 1.04e5 | 4243 |
| Cpr65Ax2 + Cpr65Ax1 | DRSC10341 | 1.04e5 | 4390 |
| Cpr65Ax2 + Cpr65Ax1 | DRSC10344 | 1.11e5 | 4279 |
| Hrb87F (GeneID 48535) | DRSC16708 | 66258 | 3335 |
| CG2021 (GeneID 38229) | DRSC08546 | 89796 | 4061 |
| CG17028 (GeneID 39741) | DRSC10239 | 1.54e5 | 7230 |
| CG14414 (GeneID 32394) | DRSC19599 | 1.39e5 | 6062 |
| CG34384 (GeneID 5740362) | DRSC12644 | 77891 | 3487 |
| CG34384 (GeneID 5740362) | DRSC14855 | 1.35e5 | 6764 |
| CG34384 (GeneID 5740362) | DRSC15444 | 1.43e5 | 6276 |
| CG34384 (GeneID 5740362) | DRSC16575 | 1.54e5 | 6822 |
| SIDL (GeneID 41833) | DRSC16077 | 75920 | 3829 |
| Rad1 + Sws1 | DRSC00778 | 1.77e5 | 6209 |
| CG14931 (GeneID 34588) | DRSC02413 | 1.44e5 | 4619 |
| CG12644 (retired record) (GeneID 50414) | DRSC17850 | 89306 | 4537 |
| pxb (GeneID 41899) | DRSC13110 | 78307 | 2827 |
| pxb (GeneID 41899) | DRSC14996 | 1.11e5 | 5674 |
| pxb (GeneID 41899) | DRSC14997 | 1.23e5 | 6629 |
| vrs (GeneID 41537) | DRSC15832 | 1.32e5 | 6354 |
| CG2519 (GeneID 40666) | DRSC12312 | 81957 | 3651 |
| Pex16 (GeneID 40293) | DRSC11750 | 75331 | 3438 |
| stj (GeneID 36526) | DRSC06124 | 174 | 30 |
| CG13063 (GeneID 39797) | DRSC09946 | 1.60e5 | 7811 |
| CG2604 (GeneID 40623) | DRSC12313 | 1.27e5 | 4840 |
| CG13051 (GeneID 5740583) | DRSC09932 | 1.71e5 | 7996 |
| osi (GeneID 50459) | DRSC02931 | 1.11e5 | 4407 |
| CG13457 (GeneID 39649) | DRSC10004 | 1.47e5 | 7806 |
| CG12084 (GeneID 192509) | DRSC08247 | 80170 | 3204 |
